# Measurements: PubChem BioAssay AID540256 (National Center for Advancing Translational Sciences (NCATS), 2011)
# Among all 300,000 compounds or so, about 3,700 (1.2%) were called active. Inconclusive means that the source gave no clear call. Such entries were picked first, then a sample of the others. Calls follow the shape of the full dose curve; tested in HEK293 cells. A potency beside an inconclusive call is a rough fit, not a confirmed value.
# Experiment: qHTS for Inhibitors of binding or entry into cells for Lassa Virus; also: nearly all actives have a fitted effect of over 50% in size
# Details: Lassa virus pseudotype entry inhibition, cell reporter; series mostly up to 37.9 µM
# Potency is read from the fitted curve at half-maximal effect.
row,Compound,Potency
1,NNc1ncnc2scc(-c3ccc(Cl)cc3)c12,inactive
2,Cc1ccc(Cl)cc1NC(=O)C1CCCN(S(=O)(=O)c2cccc3cccnc23)C1 (stereo not given),inactive
3,O=C(/C=C/c1cccc(O)c1)c1cccnc1,inactive
4,Cc1cc(NC(=O)c2cccs2)no1,"inconclusive: 35.5 µM [activator, single point]"
5,S=C(NCCC(c1ccccc1)c1ccccc1)Nc1ccccc1Cl,inactive
6,Cc1nn(Cc2ccccc2)c(Cl)c1C(=O)OC(C)C(=O)Nc1ccc(F)cc1Cl (stereo not given),active: 3.16 µM
7,O=C(Nc1cccc(S(=O)(=O)NC2=NCCCCC2)c1)c1ccc(Cl)cc1,"inconclusive: 11.2 µM [inhibitor, partial curve, poor fit]"
8,COc1ccc(-c2nc3cc(C)ccn3c2NC(=O)c2ccc(F)cc2)cc1,"inconclusive: 5.62 µM [activator, partial curve, poor fit]"
9,COc1ccccc1/C=C/C(=O)Nc1cccc(S(=O)(=O)NC2=NCCCCC2)c1,"inconclusive: 11.2 µM [inhibitor, partial curve, poor fit]"
10,COc1ccc(C(=O)NNC(=O)C2CC=CCC2)cc1 (stereo not given),"inconclusive: 1.26 µM [inhibitor, single point]"
11,C#CCOCCOCCOCCNc1nc(N2CCN(C(=O)[C@H](Cc3ccc(O)cc3)n3cc(CCO)nn3)CC2)nc(N2CCN(C(=O)[C@H](Cc3ccc(O)cc3)n3cc(CCO)nn3)CC2)n1,inactive
12,CCOc1ccc(CC(=O)Nc2c(C(=O)Nc3ccc(OC)cc3OC)oc3ccccc23)cc1,inactive
13,Cn1c(=O)c2c(SCC(=O)NCc3ccco3)nc(-c3cccc(F)c3)nc2n(C)c1=O,inactive
14,Cc1ccc(C(=O)COC(=O)c2ccc(Br)o2)cc1C,"inconclusive: 23.1 µM [activator, single point]"
15,CCOC(=O)c1c(S(=O)(=O)NCC(=O)Nc2ccc(C)c(N(C)C)c2)c(C)n(C)c1C,inactive
16,CCOc1ccccc1NC(=O)Cn1nnc(C(=O)NCc2ccco2)c1N,inactive
17,N#CCCn1cc(/C=C2\NC(=S)N(c3ccccc3)C2=O)c(-c2ccc(-c3ccccc3)cc2)n1,inactive
18,CC(C)C1COC(c2cccc3ccccc23)=N1 (stereo not given),"inconclusive: 3.26 µM [activator, partial curve, poor fit]"
19,COc1ccc([N+](=O)[O-])cc1NC(=O)Cc1noc2ccccc12,"inconclusive: 6.31 µM [activator, single point]"
20,CC(NC(=O)c1ccc2c(c1)OCO2)C(c1cccs1)N1CCN(c2ccccc2)CC1 (stereo not given),inactive
21,COC(=O)c1c(N2C(=O)Nc3ccccc3N2O)sc2c1CCCC2,"inconclusive: 0.398 µM [inhibitor, partial curve, poor fit]"
22,Cc1cccc(N2CCN(C(=O)C3CCCN(S(=O)(=O)c4ccc(Br)s4)C3)CC2)c1C (stereo not given),"inconclusive: 8.91 µM [inhibitor, partial curve, poor fit]"
23,CC1=C(O)C(=O)C=C2C1=CC=C1C2(C)CCC2(C)C3CC(C)(C(=O)O)CCC3(C)CCC12C (stereo not given),"inconclusive: 22.4 µM [inhibitor, single point]"

row,Compound,Potency
1,NNC(=O)C1CC1c1ccccc1 (stereo not given),"inconclusive: 2.51 µM [inhibitor, full curve, poor fit]"
2,CCOc1ccc(CCNC(=O)c2nc(-c3cccc(F)c3)n3c2CCCCC3)cc1OCC,"inconclusive: 25.1 µM [inhibitor, single point]"
3,COc1ccccc1CCCNC(=O)C1CCC(=O)N(CCc2ccc(Cl)cc2)C1 (stereo not given),"inconclusive: 15.8 µM [inhibitor, single point]"
4,Brc1ccc(OCc2cn3ccccc3n2)cc1,"inconclusive: 3.98 µM [inhibitor, full curve, poor fit]"
5,O=C(/C=C/c1cccc(F)c1)NNC(=O)c1ccncc1,inactive
6,CCN1CCN(c2ccc(NC(=O)c3ccc4c(c3)OCO4)cc2)CC1,inactive
7,Cc1ccc(/C=C2\SC(N3CCN(C(c4ccccc4)c4ccccc4)CC3)=NC2=O)o1,"inconclusive: 1.12 µM [inhibitor, partial curve, poor fit]"
8,CC(C)c1nc2ccc(C(=O)NCCCN3CCN(c4cccc(Cl)c4)CC3)cc2o1,inactive
9,COc1ccc(NC(=O)Cn2c(=O)n(-c3ccc(OC)cc3OC)c(=O)c3c(C)c(C)sc32)cc1,"inconclusive: 11.2 µM [inhibitor, partial curve]"
10,O=[N+]([O-])c1ccc2c(c1)ncn2-c1ccccc1,"inconclusive: 35.5 µM [activator, partial curve, poor fit]"
11,O=C(OC1CCOC1=O)c1ccc2ncsc2c1 (stereo not given),inactive
12,O=C(O)Cc1sc(-c2ccccc2Cl)nc1-c1ccccc1,inactive
13,COc1ccc(NS(=O)(=O)c2cc(NC(=O)COc3ccc(OC)cc3)ccc2N2CCOCC2)cc1,inactive
14,CC(NC(=O)COC(=O)/C=C/c1cccc(C(F)(F)F)c1)c1ccccc1 (stereo not given),"inconclusive: 8.91 µM [inhibitor, partial curve]"
15,O=c1cc2c(=O)oc3cc(O)c(O)oc3c2c(O)c1O,"inconclusive: 12.6 µM [activator, partial curve]"
16,CC1CN(S(=O)(=O)c2ccccc2)CC(C)O1 (stereo not given),"inconclusive: 2.06 µM [inhibitor, partial curve, poor fit]"
17,CCCCC(C(=O)NC(C)(C)C)N(Cc1ccco1)C(=O)c1snc(C(N)=O)c1N (stereo not given),"inconclusive: 0.184 µM [inhibitor, partial curve]"
18,CCN(CC)CCNC(=O)CSc1nc2nc(C)c(Cc3ccccc3)c(C)n2n1,inactive
19,Cc1ccc(NS(=O)(=O)c2ccc(-c3ccc(=O)[nH]n3)o2)cc1Cl,inactive
20,O=C(O)CCCn1nc(C(F)(F)F)c2c1CCCCC2,inactive
21,COc1ccc(/C=C(\NC(=O)c2ccc(OCC(C)C)cc2)C(=O)OCc2ccco2)cc1,active: 12.6 µM
22,COc1cccc(NS(=O)(=O)c2ccc3c(c2)[C@H]2C=CC[C@H]2[C@@H](c2ccccc2Cl)N3)c1,"inconclusive: 15.8 µM [inhibitor, single point]"

# Taken from above for reference:
row,Compound,Potency
20,O=C(O)CCCn1nc(C(F)(F)F)c2c1CCCCC2,inactive
21,COc1ccc(/C=C(\NC(=O)c2ccc(OCC(C)C)cc2)C(=O)OCc2ccco2)cc1,active: 12.6 µM
22,COc1cccc(NS(=O)(=O)c2ccc3c(c2)[C@H]2C=CC[C@H]2[C@@H](c2ccccc2Cl)N3)c1,"inconclusive: 15.8 µM [inhibitor, single point]"
